The results in this text go back to paper PMC10115779.

The chains behind the UniProt entries cited, without tags or fusion partners. Where a name states a change or a piece, a line headed by the entry shows the natural chain unless it says otherwise.
UniProt Q8RY59: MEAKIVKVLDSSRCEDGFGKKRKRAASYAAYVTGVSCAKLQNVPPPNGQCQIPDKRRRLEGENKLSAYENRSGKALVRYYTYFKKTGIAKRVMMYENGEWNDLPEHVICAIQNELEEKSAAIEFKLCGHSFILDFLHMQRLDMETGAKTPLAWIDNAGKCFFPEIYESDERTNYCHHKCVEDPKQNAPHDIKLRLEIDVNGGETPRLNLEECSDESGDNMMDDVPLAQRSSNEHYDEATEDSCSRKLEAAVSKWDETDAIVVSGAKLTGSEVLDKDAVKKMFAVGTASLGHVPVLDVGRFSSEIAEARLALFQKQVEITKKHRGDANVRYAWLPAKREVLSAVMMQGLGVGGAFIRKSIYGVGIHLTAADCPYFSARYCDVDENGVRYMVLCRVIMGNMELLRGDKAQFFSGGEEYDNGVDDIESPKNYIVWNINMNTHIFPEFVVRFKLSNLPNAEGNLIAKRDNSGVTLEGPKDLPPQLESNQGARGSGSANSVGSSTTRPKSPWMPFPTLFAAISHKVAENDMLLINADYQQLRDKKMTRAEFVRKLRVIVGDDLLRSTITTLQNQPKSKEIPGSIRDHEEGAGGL
UniProt Q9SQR8: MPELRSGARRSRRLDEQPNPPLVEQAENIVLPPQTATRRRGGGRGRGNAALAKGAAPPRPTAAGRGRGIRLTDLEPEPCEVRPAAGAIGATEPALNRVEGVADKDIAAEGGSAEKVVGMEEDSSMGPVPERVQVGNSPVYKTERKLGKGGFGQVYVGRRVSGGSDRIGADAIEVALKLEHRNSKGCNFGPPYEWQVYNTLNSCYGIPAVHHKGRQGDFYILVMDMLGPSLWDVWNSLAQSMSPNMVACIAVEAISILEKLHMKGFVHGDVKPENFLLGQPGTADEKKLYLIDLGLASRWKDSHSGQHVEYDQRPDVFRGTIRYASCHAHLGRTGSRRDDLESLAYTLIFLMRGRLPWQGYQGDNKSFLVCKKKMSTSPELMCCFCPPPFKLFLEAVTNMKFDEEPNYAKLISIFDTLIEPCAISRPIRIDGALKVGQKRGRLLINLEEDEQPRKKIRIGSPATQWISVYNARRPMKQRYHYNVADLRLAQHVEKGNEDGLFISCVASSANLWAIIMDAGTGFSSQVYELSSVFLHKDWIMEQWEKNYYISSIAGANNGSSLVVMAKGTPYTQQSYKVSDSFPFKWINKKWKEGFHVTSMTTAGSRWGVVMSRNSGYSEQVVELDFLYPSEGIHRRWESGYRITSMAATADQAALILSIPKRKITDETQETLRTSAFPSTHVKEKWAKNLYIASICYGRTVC

In the test the target is RADICAL-INDUCED CELL DEATH1 (RCD1), GFP fusion (Arabidopsis thaliana) (UniProt Q8RY59). Description: co-IP; RCD1-GFP and PPK-3xHA co-expressed transiently in N. benthamiana leaves; extract in 50 mM Tris-HCl pH 7.5, 150 mM NaCl, 10% glycerol, 1 mM EDTA, 5 mM DTT, 10 uM MG132; captured on anti-GFP-nanobody magnetic beads, 4 C, 5 min; blots with anti-GFP and anti-HA.

These are yes or no findings as the source states them, for the method shown. In cells and extracts the contact can be indirect. Binding can be weak; no strength is given.

On to “Photoregulatory Protein Kinase 3 (PPK3), 3xHA fusion (from UniProt Q9SQR8) (enzyme)”, for which the binding result is “binds”.
